Test results: paper PMC12071843
These are yes or no findings as the source states them, for the method shown. Binding seen in cells or lysates may run through a third protein. Here binding means that the protein was enriched with, or labelled near, the bait; the list need not be complete.

Amino acid sequences for entries named in this document (tags omitted). Residues count along the entry.
UniProt Q99700: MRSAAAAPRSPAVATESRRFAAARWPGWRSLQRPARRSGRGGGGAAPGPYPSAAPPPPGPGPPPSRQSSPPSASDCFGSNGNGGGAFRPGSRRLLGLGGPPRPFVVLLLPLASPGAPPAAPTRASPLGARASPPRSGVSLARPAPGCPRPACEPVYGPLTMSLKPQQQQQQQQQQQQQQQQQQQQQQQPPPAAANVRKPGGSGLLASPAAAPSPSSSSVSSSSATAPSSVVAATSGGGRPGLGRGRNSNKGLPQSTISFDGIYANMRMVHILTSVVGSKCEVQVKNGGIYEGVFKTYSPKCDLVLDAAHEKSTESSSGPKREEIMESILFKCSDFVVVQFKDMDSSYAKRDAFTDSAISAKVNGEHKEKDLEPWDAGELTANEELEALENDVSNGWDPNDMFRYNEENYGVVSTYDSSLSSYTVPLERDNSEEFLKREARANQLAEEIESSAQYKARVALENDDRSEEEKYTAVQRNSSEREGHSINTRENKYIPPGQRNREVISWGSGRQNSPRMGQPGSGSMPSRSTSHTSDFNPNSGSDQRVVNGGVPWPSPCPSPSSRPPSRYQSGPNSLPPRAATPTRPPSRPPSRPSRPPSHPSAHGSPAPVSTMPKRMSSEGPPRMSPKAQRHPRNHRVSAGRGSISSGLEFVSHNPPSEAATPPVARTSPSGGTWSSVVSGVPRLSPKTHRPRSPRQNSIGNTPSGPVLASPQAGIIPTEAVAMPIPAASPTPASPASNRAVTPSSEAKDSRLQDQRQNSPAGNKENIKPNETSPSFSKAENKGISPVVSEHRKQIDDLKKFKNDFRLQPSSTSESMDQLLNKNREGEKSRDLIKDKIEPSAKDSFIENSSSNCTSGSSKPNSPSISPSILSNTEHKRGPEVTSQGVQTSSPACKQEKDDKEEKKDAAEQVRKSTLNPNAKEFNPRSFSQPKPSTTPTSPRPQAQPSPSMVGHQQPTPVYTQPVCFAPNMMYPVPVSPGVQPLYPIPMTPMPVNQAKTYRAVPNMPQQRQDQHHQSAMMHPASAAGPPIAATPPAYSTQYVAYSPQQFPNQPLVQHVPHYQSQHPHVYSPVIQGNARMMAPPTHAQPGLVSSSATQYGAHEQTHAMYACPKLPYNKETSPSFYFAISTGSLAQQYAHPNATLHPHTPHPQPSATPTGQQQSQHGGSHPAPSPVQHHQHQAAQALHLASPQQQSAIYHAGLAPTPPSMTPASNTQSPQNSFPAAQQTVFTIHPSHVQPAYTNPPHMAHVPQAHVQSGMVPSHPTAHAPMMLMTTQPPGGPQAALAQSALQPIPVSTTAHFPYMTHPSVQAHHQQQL
UniProt P04406: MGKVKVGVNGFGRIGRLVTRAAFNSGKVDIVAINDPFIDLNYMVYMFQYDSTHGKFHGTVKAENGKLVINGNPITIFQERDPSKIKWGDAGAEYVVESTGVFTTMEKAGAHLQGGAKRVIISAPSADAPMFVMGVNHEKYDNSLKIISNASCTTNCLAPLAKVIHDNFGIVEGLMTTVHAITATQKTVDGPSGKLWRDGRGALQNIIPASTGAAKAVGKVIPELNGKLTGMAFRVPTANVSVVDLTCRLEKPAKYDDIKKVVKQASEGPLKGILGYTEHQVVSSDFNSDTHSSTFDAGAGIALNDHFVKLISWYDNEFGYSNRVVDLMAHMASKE
UniProt O75022, residues 24-631: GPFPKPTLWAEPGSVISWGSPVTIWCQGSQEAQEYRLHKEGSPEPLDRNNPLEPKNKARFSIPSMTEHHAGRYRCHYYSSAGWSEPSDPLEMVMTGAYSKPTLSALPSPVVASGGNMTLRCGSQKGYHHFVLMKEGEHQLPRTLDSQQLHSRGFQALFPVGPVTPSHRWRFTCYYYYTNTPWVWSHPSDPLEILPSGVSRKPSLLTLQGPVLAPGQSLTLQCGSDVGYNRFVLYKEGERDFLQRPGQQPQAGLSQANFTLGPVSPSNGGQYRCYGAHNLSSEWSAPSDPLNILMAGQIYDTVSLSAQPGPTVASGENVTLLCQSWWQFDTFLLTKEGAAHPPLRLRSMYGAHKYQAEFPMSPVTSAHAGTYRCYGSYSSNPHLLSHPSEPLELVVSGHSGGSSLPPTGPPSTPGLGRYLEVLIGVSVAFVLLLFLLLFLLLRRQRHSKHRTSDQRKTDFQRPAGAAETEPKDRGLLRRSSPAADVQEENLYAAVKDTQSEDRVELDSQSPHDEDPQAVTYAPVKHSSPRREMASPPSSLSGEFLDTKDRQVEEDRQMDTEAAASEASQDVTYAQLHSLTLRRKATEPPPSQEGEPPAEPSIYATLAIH
UniProt P60660: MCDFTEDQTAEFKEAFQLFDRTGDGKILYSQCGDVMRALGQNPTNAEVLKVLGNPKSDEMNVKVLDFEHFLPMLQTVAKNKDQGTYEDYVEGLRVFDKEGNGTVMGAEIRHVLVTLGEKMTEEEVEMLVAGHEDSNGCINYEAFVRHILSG
UniProt P48741: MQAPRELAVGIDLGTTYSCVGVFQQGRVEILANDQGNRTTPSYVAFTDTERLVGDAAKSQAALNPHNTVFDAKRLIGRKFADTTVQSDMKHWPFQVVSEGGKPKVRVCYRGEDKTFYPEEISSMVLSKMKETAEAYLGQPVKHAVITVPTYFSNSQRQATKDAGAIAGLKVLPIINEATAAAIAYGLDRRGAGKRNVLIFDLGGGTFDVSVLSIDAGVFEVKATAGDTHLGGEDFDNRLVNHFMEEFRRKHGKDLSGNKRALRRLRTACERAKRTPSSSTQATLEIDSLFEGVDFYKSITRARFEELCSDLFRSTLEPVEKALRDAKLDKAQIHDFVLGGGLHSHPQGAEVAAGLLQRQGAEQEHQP
UniProt Q8IWN7: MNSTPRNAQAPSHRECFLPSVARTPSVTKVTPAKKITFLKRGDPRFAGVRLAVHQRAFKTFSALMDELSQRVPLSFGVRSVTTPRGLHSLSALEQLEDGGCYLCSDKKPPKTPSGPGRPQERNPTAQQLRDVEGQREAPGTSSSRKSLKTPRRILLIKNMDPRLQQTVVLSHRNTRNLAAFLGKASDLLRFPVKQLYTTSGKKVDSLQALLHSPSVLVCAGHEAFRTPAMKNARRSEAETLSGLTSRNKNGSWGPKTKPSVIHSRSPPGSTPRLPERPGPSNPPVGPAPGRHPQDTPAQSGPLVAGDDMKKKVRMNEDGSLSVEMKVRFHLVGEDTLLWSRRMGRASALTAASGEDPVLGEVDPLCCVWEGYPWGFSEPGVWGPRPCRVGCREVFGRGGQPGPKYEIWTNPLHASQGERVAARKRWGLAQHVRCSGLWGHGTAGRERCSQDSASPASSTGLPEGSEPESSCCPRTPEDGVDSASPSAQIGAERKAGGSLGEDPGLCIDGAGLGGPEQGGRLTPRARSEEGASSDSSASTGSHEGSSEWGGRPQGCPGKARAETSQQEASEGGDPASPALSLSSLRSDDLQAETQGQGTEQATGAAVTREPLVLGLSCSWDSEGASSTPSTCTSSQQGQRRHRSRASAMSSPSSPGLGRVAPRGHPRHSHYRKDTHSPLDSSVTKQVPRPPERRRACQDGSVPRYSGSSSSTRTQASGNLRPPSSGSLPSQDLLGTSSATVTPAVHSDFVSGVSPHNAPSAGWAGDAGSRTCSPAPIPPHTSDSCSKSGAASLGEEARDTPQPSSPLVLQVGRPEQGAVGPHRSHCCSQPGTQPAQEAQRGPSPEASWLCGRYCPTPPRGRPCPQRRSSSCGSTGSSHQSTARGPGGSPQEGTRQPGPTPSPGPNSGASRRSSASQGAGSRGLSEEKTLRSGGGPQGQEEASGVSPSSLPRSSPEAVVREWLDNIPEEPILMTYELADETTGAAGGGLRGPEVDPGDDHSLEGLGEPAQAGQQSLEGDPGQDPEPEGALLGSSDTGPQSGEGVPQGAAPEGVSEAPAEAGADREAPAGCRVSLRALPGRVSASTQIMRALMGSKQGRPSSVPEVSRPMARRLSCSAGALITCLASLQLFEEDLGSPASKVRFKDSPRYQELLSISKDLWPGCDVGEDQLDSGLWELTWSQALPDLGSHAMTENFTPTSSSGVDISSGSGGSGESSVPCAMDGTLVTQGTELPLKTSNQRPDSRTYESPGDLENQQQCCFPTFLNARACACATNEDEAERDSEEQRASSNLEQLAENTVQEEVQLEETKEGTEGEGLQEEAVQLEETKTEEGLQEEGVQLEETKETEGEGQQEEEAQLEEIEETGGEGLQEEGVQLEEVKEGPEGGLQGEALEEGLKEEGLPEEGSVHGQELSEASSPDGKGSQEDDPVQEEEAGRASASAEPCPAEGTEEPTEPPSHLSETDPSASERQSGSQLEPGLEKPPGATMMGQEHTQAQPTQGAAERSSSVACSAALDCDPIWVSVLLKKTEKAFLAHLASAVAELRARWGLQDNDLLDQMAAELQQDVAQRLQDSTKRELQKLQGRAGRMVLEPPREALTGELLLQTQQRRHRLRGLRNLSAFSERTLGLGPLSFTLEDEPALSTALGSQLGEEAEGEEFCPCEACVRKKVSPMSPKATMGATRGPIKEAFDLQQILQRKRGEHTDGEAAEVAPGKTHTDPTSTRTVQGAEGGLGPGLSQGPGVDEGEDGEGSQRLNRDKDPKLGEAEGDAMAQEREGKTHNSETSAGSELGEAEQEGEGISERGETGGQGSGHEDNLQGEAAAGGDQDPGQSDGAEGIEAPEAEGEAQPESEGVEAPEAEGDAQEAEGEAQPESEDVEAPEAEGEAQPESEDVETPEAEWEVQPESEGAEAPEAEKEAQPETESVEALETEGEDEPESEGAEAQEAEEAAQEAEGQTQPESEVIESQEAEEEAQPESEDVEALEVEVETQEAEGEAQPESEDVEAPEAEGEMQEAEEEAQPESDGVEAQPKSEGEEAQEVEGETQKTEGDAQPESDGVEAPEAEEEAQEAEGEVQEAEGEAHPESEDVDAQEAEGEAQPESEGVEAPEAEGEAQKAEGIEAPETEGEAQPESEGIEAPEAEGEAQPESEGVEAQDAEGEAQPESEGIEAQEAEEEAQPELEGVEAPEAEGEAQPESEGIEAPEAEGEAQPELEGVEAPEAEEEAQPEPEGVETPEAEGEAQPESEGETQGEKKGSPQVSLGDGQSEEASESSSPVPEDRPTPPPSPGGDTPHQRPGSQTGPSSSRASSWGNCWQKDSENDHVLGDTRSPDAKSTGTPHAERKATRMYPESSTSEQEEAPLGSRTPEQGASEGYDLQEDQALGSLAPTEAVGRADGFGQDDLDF
UniProt Q92925: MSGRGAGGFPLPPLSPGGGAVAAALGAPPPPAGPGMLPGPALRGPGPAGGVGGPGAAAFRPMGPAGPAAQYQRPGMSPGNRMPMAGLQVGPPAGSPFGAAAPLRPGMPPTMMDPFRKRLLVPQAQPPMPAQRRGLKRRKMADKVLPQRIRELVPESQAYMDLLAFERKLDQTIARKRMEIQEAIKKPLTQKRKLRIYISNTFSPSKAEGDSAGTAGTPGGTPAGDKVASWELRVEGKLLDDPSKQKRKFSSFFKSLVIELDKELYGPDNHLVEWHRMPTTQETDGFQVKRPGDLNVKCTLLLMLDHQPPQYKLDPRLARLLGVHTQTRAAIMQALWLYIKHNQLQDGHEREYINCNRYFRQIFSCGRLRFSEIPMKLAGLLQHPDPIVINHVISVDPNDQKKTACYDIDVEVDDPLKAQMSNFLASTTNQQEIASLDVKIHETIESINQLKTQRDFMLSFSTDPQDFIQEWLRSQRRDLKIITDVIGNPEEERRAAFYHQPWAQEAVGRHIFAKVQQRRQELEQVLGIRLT
UniProt Q9BYN0: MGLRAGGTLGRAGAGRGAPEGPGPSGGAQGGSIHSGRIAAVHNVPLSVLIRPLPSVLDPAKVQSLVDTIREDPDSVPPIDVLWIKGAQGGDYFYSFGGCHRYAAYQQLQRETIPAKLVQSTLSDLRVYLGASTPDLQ
UniProt Q68DL7: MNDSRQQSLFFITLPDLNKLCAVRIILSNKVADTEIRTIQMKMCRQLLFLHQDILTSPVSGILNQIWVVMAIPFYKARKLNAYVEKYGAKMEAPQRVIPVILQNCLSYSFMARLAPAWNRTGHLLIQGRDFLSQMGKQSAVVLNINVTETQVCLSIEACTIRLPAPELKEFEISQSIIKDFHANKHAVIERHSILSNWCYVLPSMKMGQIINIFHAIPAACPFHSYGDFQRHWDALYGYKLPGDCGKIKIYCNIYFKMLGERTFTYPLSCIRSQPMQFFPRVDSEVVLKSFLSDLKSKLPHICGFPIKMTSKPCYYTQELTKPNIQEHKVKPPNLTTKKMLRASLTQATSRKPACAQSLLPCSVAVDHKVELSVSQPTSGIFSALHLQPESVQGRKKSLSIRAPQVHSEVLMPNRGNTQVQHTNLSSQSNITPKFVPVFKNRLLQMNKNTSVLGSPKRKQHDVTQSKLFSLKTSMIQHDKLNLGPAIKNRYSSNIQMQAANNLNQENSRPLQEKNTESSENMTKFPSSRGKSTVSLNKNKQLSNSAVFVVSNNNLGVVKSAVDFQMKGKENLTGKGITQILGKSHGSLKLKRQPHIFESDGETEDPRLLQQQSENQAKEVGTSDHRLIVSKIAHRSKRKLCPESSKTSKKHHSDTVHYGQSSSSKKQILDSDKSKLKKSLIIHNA

Key:
[1] = target: Matrix metalloproteinase 3 (human (endogenous in OVCAR3CIS)) (UniProt P08254); assay: affinity purification with mass spectrometry; extracellular MMP3: supernatants of serum-free OVCAR3CIS cells, untreated or cisplatin-treated, pre-cleared on protein A/G magnetic beads, anti-MMP3 antibody (Abcam) 10 ug/200 ug protein at 4 °C overnight, protein A/G magnetic beads (Pierce MS-compatible Magnetic IP Kit), eluate by LC-MS/MS
[2] = target: Matrix metalloproteinase 3 (human (endogenous in OVCAR3CIS)) (UniProt P08254); assay: affinity purification with mass spectrometry; intracellular MMP3: protein of serum-free OVCAR3CIS cells, untreated or cisplatin-treated, pre-cleared on protein A/G magnetic beads, anti-MMP3 antibody (Abcam) 10 ug/200 ug protein at 4 °C overnight, protein A/G magnetic beads (Pierce MS-compatible Magnetic IP Kit), eluate by LC-MS/MS; listed proteins consistent in at least two replicates

Substance	binding [1]	binding [2]
Albumin (from UniProt P02768 25-609)	binds	binds
Alpha-protein kinase 2 (from UniProt Q86TB3 1-2170)	binds	
Ataxin-2 (from UniProt Q99700 1-1313)	binds	binds
BTB/POZ domain-containing protein KCTD3 (from UniProt Q9Y597 1-815)		binds
Clathrin heavy chain 1 (from UniProt Q00610 1-1675)		binds
Coiled-coil domain-containing protein 22 (from UniProt O60826 1-627)	binds	binds
Filaggrin (from UniProt P20930 1-4061)	binds	binds
Glyceraldehyde-3-phosphate dehydrogenase (from UniProt P04406 1-335)		binds
Hemoglobin subunit epsilon (from UniProt P02100 1-147)	binds	
Heterogeneous nuclear ribonucleoprotein A/B (from UniProt Q99729 1-332)	binds	
High mobility group protein HMGI-C (from UniProt P52926 1-109)		binds
Immunoglobulin lambda-1 light chain (from UniProt P0DOX8 1-216)	binds	
Laminin subunit alpha-5 (from UniProt O15230 36-3695)	binds	
Leukocyte immunoglobulin-like receptor subfamily B member 3 (from UniProt O75022 24-631)	binds	
Myosin light polypeptide 6 (from UniProt P60660 1-151)		binds
Myosin regulatory light chain 12B (from UniProt O14950 1-172)		binds
Myosin-9 (from UniProt P35579 1-1960)		binds
Myosin-10 (from UniProt P35580 1-1976)		binds
POTE ankyrin domain family member E (from UniProt Q6S8J3 1-1075)	binds	
POTE ankyrin domain family member F (from UniProt A5A3E0 1-1075)	binds	
Progranulin (from UniProt P28799 18-593)	binds	binds
Protein FAM228B (from UniProt P0C875 1-324)	binds	
Putative heat shock 70 kDa protein 7 (from UniProt P48741 1-367)	binds	
Retinitis pigmentosa 1-like 1 protein (from UniProt Q8IWN7 1-2400)	binds	
SWI/SNF-related matrix-associated actin-dependent regulator of chromatin subfamily D member 2 (from UniProt Q92925 1-531)	binds	
Spectrin alpha chain, non-erythrocytic 1 (from UniProt Q13813 1-2472)	binds	
Stress-70 protein, mitochondrial (from UniProt P38646 47-679)		binds
Sulfiredoxin-1 (from UniProt Q9BYN0 1-137)		binds
Uncharacterized protein C18orf63 (from UniProt Q68DL7 1-685)	binds	binds
